According to article PMC11068891:
No constants are given. Whether binding was seen depends on the method and setting. Binding seen in cells or lysates may run through a third protein. Here binding means that the protein was enriched with, or labelled near, the bait; the list need not be complete. For some assays here: No binding means not detected with the bait. Where a sequence is shown, tags or fusion partners need not be part of it. Blank lines part the entries; values can stand above or below the molecule they belong to.

Amino acid sequences for entries named in this document (tags omitted).
UniProt Q8IIW4: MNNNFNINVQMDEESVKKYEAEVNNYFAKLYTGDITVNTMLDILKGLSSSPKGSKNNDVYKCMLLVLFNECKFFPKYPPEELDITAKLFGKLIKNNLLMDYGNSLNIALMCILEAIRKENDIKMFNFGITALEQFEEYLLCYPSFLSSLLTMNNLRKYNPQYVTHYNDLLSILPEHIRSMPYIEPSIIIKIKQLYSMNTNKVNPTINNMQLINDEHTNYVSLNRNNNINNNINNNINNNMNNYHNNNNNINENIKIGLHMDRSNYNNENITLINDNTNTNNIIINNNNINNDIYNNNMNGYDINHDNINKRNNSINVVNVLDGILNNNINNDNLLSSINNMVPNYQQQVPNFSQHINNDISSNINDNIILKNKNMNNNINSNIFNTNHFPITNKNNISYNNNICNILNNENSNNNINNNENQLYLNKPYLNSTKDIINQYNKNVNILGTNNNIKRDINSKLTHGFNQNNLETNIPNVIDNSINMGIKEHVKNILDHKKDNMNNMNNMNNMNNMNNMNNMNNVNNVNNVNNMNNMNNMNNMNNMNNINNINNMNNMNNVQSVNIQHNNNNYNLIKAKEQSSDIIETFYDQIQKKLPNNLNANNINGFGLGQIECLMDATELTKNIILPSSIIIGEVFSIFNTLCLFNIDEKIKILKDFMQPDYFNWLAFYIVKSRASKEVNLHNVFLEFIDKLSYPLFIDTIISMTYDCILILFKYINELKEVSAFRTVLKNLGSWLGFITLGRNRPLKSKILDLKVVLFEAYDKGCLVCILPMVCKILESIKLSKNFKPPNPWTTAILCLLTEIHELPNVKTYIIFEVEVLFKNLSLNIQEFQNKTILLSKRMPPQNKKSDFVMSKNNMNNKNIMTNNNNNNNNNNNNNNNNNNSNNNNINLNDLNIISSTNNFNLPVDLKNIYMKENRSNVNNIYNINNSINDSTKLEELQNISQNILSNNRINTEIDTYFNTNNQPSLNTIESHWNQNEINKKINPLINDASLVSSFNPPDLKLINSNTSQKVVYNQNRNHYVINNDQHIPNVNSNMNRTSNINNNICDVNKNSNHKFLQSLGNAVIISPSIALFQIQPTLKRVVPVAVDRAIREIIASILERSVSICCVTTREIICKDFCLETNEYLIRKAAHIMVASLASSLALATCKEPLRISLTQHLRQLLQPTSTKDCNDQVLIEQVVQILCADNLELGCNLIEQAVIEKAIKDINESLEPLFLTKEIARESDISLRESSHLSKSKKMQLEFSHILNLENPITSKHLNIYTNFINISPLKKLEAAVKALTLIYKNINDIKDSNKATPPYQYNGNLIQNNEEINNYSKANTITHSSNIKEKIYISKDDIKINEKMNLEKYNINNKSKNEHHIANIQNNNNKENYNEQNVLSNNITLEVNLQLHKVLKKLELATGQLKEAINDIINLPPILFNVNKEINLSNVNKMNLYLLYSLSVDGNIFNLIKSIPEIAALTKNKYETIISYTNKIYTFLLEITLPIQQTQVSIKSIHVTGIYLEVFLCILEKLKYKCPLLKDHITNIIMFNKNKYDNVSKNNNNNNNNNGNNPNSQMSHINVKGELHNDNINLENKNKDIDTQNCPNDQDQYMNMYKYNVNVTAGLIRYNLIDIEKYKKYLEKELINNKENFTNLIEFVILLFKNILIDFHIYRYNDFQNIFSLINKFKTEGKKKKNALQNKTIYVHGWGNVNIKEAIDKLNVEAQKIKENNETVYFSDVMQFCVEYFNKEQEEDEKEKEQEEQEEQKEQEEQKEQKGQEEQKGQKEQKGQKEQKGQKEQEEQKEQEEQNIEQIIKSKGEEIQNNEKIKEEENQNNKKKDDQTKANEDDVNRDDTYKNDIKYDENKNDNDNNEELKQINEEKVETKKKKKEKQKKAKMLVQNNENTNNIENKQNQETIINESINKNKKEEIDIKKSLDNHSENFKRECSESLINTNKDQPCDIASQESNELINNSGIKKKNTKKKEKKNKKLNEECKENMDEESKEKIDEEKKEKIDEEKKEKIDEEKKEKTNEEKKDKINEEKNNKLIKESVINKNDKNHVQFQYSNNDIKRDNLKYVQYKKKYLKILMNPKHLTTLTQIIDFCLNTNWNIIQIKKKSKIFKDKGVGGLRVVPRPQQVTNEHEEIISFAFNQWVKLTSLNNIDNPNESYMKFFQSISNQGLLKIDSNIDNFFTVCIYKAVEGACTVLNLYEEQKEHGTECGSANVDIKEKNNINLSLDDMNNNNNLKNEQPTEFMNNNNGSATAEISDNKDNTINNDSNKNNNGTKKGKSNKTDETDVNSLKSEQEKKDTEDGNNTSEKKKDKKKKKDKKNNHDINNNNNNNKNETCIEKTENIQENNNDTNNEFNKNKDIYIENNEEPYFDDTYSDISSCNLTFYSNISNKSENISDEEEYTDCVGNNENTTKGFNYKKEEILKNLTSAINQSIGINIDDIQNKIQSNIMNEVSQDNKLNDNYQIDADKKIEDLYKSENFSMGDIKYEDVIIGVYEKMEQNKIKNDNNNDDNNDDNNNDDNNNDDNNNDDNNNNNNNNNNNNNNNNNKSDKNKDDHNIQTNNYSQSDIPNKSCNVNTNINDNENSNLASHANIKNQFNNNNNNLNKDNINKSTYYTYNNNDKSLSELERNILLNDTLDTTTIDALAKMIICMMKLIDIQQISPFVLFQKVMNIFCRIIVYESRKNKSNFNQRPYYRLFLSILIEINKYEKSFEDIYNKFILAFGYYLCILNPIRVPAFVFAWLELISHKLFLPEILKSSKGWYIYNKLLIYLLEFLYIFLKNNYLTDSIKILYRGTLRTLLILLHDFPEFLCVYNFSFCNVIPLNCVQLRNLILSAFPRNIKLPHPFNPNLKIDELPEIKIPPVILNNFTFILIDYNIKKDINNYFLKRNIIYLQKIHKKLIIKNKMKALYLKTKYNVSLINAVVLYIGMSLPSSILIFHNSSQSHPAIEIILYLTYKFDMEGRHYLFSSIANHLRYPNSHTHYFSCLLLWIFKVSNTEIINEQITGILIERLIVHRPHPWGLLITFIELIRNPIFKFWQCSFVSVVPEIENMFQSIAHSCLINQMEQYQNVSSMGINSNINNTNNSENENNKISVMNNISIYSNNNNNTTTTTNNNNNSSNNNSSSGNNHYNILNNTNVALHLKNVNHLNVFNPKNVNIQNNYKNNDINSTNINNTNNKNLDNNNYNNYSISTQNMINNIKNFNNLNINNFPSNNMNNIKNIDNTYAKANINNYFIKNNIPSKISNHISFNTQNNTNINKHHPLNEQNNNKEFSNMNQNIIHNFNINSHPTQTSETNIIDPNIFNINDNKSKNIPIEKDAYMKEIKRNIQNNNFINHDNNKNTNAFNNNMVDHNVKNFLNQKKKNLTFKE

How the values were obtained:
[1] = biological target: T1, PfDOZI::GFP (P. falciparum (endogenous in 3D7 parasites)) (UniProt O97285); experiment: affinity purification with mass spectrometry; GFP-Trap beads with lysate of purified PfDOZI::GFP gametocytes (day 5), native conditions; same buffers (300 mM NaCl, 0.1% NP40), 4 °C, 2 h; agarose beads as control; LC-MS/MS in triplicate, SAINT, FDR 1%
T1 sequence: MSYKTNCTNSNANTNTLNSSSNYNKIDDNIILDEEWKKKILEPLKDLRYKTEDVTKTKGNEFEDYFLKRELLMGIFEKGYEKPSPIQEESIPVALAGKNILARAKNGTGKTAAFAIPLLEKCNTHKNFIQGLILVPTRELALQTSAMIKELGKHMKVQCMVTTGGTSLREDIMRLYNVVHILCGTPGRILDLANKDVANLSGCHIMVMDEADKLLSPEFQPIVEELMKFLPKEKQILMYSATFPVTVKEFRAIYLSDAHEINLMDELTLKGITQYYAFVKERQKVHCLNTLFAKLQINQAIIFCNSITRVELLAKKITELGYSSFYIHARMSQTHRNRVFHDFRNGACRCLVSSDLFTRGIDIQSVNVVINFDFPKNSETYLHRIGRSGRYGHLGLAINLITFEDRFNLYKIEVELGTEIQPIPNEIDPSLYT

[2] = biological target: T2, PfDCP2::GFP (P. falciparum (endogenous in 3D7 parasites)) (UniProt Q8IEM5); experiment: affinity purification with mass spectrometry; GFP-Trap beads with lysate of PfDCP2::GFP parasites at the schizont stage; same buffers (300 mM NaCl, 0.1% NP40), 4 °C, 2 h; agarose beads as control; LC-MS/MS, SAINT, FDR 1%
T2 sequence: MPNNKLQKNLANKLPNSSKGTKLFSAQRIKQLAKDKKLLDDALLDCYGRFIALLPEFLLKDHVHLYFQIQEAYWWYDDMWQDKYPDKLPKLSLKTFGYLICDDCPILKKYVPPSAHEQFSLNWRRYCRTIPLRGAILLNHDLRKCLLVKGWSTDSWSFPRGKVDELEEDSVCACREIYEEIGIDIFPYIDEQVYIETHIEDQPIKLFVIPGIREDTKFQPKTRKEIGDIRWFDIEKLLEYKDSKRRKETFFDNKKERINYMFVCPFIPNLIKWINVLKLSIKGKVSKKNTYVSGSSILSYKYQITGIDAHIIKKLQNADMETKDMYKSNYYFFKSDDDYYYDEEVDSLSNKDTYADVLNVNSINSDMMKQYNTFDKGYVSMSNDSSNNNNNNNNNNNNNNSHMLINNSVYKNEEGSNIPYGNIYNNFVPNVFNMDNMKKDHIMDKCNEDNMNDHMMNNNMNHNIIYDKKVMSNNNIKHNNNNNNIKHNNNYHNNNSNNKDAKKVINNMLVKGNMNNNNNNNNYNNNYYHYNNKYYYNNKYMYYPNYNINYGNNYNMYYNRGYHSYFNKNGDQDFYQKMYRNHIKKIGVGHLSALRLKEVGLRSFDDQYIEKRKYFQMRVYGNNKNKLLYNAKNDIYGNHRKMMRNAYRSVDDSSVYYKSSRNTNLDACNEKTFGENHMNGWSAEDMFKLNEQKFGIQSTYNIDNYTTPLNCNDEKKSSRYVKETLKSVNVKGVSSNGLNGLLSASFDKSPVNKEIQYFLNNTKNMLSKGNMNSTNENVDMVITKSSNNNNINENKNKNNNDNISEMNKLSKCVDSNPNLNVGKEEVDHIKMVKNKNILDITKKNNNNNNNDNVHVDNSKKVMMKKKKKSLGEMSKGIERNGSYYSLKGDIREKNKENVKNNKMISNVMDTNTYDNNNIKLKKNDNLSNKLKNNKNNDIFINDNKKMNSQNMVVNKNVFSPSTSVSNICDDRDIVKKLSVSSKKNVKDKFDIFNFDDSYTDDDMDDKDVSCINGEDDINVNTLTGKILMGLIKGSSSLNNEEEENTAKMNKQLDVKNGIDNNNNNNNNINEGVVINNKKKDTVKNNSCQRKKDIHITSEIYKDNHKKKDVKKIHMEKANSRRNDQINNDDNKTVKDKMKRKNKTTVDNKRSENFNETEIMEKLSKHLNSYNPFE

[3] = biological target: T1, PfDOZI::GFP (P. falciparum (endogenous in 3D7 parasites)); experiment: affinity purification with mass spectrometry; GFP-Trap beads with lysate of PfDOZI::GFP schizonts under normal culture, native conditions; lysis and wash buffer 300 mM NaCl, 20 mM HEPES pH 7.9, 2 mM MgCl2, 0.2 mM EDTA, 0.1% NP40, 0.5 mM DTT; 4 °C, 2 h; agarose beads as control; LC-MS/MS in triplicate, SAINT, FDR 1%
[4] = biological target: T3, PfGBP2::GFP (P. falciparum (endogenous in 3D7 parasites)) (UniProt Q8IJX3); experiment: affinity purification with mass spectrometry; GFP-Trap beads with lysate of PfGBP2::GFP stressed schizonts; same buffers (300 mM NaCl, 0.1% NP40), 4 °C, 2 h; agarose beads as control; LC-MS/MS, SAINT, FDR 1%
T3 sequence: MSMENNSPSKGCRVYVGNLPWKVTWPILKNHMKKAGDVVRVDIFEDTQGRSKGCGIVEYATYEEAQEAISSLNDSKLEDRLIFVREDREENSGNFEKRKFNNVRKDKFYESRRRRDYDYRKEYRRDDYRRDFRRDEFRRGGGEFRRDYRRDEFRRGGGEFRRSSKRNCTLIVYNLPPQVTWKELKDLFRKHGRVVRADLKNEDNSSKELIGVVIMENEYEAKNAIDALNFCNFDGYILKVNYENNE

[5] = biological target: T1, PfDOZI::GFP (P. falciparum (endogenous in 3D7 parasites)); experiment: affinity purification with mass spectrometry; GFP-Trap beads with lysate of PfDOZI::GFP schizonts under nutrient starvation (stressed schizonts), native conditions; same buffers (300 mM NaCl, 0.1% NP40), 4 °C, 2 h; agarose beads as control; LC-MS/MS in triplicate, SAINT, FDR 1%

Molecule: NOT1 (from UniProt Q8IIW4 1-3371)
binding [1]: binds
binding [3]: binds
binding [2]: binds

B2: DCP2 (protein, UniProt Q8IEM5 1-1173)
chain: T2 sequence
binding [4]: no binding
binding [3]: binds

B3: CITH (LSm14) (protein, UniProt Q8IK89 1-328)
chain: MSSVSTLPYIGSKISLISNSEIRYEGILYTINTHESTVALQNVRSFGTEGRRQPDIAPSNEVYDFIIFRGKDIKDVTVSETGKNIPDDPAIVSMNIAPSSKNNITDNLNYNNNMNINKSLKVNNNLISSNDRNMNNRRYYNNRPNYNFHYNNRNYNNNQNNNNNNNNNNYKYRNYRNYERSNYVIGELQSQPNPALKNKFSPDFDFNTNNMKFDKNNILEEKNKEDSTALNNHMQVGGYDKNSSFFDNISCETLDKKQGIDEKVDREKLRMLDVDTFGIAAAHYRTNMHNRHQNRMKMRNNRKHKIFSQNNYNYFNRNQNPFNRYPPY
binding [5]: binds
binding [4]: binds
binding [1]: binds
binding [3]: binds

B4: CAF40 (protein, UniProt Q8I427 1-652)
chain: MVINNDMVKGSNKMKNLNKNIFPVNPNNNVVSNINSSKLNQGGVCIAEDINMGSVNNTNDLNNSDEIINCGNMNKSEDINKPGDINNSDDVNNPDDINNKINVNGIHSPLNESLQNLDRNNMSVCNLGNVTTPVNNINNNINNNINCNNNNNNNNNNSSNSNSNSNSNSNPICINNNENNKYKNSNKCNDFHKDNTTSEQDQTKNDNNINNLSSGQENTINNEEEKKKVYQLVYDLCFSEKRENALLELSRKRETYHDIAPVLWNSFGTITTLLQEIVSIYPQLSPPLLTTSSSNRVCNSLALLQCVASHPETKQHFLNAHIPLFLYPFLNAESKNRPFEYLRLTSLGVIGALVKVDNPEVINFLLQTEIIPLCLRIMETGSELSKTVATFIVQKILIDELGLNYICATPERFYAVSTVLANMVNSLVENPSSRLLKHIVRCYLRLSENARALEALKYCLPEPLRHVHKTFLPCLKEDPFTKKWLLQLLYNINNDDENLTMKNTNFINHNTNQNTSNINNQTLNKISQNVYTNLNVPTALNEININIPKTDTHTNIHNINDNIENSSSQSFNNKINDTNLKCGKINNNKLNPDLTNNDINDNNINDNNNDNNDNNNINDNIMNDDNNNINGDSVNNNNMNDDSVNNNNMNDN
binding [1]: binds
binding [3]: binds
binding [2]: binds

Now from value to molecule:

binding [1]: binds
binding [2]: binds
Molecule: NOT1-G (from UniProt Q8ILS4 1-4466)

binding [4]: binds
binding [1]: binds
binding [3]: binds
B1: PABP1 (protein, UniProt Q8I5H4 1-875)
chain: MIATGTNMMHPSFSTASLYVGDLNEDVTEAVLYEIFNTVGHVSSIRVCRDSVTRKSLGYAYVNYHNLADAERALDTLNYTNIKGQPARLMWSHRDPSLRKSGTGNIFVKNLDKSIDNKALFDTFSMFGNILSCKVATDEFGKSKSYGFVHYEDEESAKEAIEKVNGVQLGSKNVYVGPFIKKSERATNDTKFTNLYVKNFPDSVTETHLRQLFNPYGEITSMIVKMDNKNRKFCFINYADAESAKNAMDNLNGKKITDDGQIDETYDPKKEEATASTSGAANQTTGTDADKTDKNDKNNKADKNEKGDSSNANNNATATGATTTDTTTTPGETTTTTANADSTGANNNNGLSPNTNTSNTTTGSSNNSINLNENNNTAGNNNSTNNNNNSGSSMNNAGSAKKDETAASDCADTPNILYVGPHQSRARRHAILKAKFDNLNVENKNKHQGVNLYIKNLDDGIDDIMLRELFEPFGTITSAKVMRDEKEQSKGFGFVCFASQEEANKAVTEMHLKIINGKPLYVGLAEKREQRLSRLQQRFRMHPIRHHMNNPLNTPMQYASPQSPQLQFSQNTLSYGRPVITAFNQNNLISWRHQQAAQQQAVHQQAVHQQAAQQQLNFNTNLRGQINQMRLYTQNNMMNNNLNQNKPNAQLHHNQQYVPNALAQNGQQQPNLNAAGQHNAQQLQQQGNNQLLNNNMRNMNNRANRNMGNLGNMNNQKQLPLNINNKQQNAASQANQMNHQAQPQGAQAQQKNPQQMQQVPQGNNFKFTAQARNRMELPNKNANKVNTMNNNMNVNFNNNSTLTAAALASAPPSMQKQVLGENLFPLVANYHPTLAGKITGMMLEMDNSELLILLENEEQLKKKIDEALVVLQKAK
